# Library screen at single concentrations

From ChEMBL document CHEMBL3988442, “University of Dundee, Small-Polar-MMV Screening Library” (2021).

T. brucei: 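Whole-parasite assay of Trypanosoma brucei over 72 hours; the read-out is not stated. Concentration: 30 µM. The record gives no direction; compounds that gave an IC50 in retests scored well above the rest, so higher reads as stronger inhibition. Values scatter widely below zero; nearly all retest evidence comes from the higher of the two concentrations used. Of about 64,000 compounds tested this way, about 940 (1.5%) reached 50% or more in at least one test.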
Toxoplasma: 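Assay of Toxoplasma gondii numbers, read through their beta-galactosidase reporter with a colour substrate. Compounds at 10 µM. Higher reads as fewer parasites (inferred from which compounds were picked for retests). About 67,000 compounds were tested under these conditions; 0.38% (about 260) showed 50% or more at least once.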

The filed quantity is “Percent Effect” (%). The record does not define 0% and 100%; most values in the screen are far below 50% and negative numbers occur (in some assays of this library far below -100). The compounds are a random part of those screened. A dash means the value is not listed here; it may have been measured.

| Compound | T. brucei | Toxoplasma |
|---|---|---|
| `CC(Cc1ccccc1F)C(=O)Nc1cccc(OCC(N)=O)c1` (stereo unspecified) | 6.29 | -2.813 |
| `Cc1[nH]ncc1CCCNC(=O)N1CCN2CCCCC2C1` (stereo unspecified) | -62.45 | 5.487 |
| `CC(NCc1cccc(S(=O)(=O)N(C)C)c1)c1ccccn1` (stereo unspecified) | -23.19 | -16.88 |
| `O=C(NC1CC1)N(CCc1ccccc1)C1CCOC1` (stereo unspecified) | -62.96 | -2.462 |
| `N#Cc1cc(F)ccc1CN1CCCCC1Cn1cccn1` (stereo unspecified) | -8.165 | -2.776 |
| `CCc1nc(CN2CCN(C(=O)C3(C#N)CCCC3)CC2)cs1` | -0.937 | 4.627 |
| `CS(=O)(=O)N1CC2(CCN(C3COC3)C2)Cc2ccccc21` (stereo unspecified) | - | 34.37 |
| `NC(=O)c1c[nH]nc1NC(=O)c1cccc(Cl)c1` | -12.02 | 21.15 |
| `c1ccc(CNc2nc(N3CCOCC3)nc3nccnc23)cc1` | - | 0.2834 |
| `CCc1nc(CN(C)C2CCN(CCn3cccn3)C2)no1` (stereo unspecified) | 11.12 | -15.75 |
| `CC(C)c1ncncc1C(=O)NCCN1CCCCC1C` (stereo unspecified) | - | 19.4 |
| `CNC(=O)COc1ccccc1CNC1CCc2nc(C)nn2C1` (stereo unspecified) | -16.51 | -0.059 |
| `Cc1cnccc1NCCNC(=O)[C@H]1CNC[C@H](C(=O)N2CCCC2)C1` | -44.07 | 5.545 |
| `N#Cc1cccc(CN2C[C@@H](F)[C@@H](OCc3nc4cnccc4[nH]3)C2)c1` | -34.05 | -1.165 |
| `CCC(C)NC(=O)Nc1cccc(OC)c1` (stereo unspecified) | -17.14 | -1.033 |
| `[H][C@@]12CC[C@H](Oc3cccc(F)c3)[C@]1([H])CN(C(=O)COCCOC)C2` | -29.41 | -68.4 |
| `O=C(c1cc2c(s1)CCOC2)N1CCCC1Cn1cccn1` (stereo unspecified) | -19.35 | -10.98 |
| `Cc1ccc(-n2cc(C(=O)NCc3nnc4n3CCCCC4)nn2)cc1` | -6.065 | -15.35 |
| `CN(C)[C@@H]1CCN(C(=O)c2ccsc2)[C@H]1Cc1cnn(C)c1` | 1.447 | 0.3882 |
| `Cc1cc(C(=O)N2CCN(C(=O)CCC3CCCCC3)CC2)n(C)n1` | -57.59 | 6.89 |
| `Cc1cc(NC(=O)CN2CCCC2c2noc(C3CC3)n2)no1` (stereo unspecified) | -76.9 | -4.379 |
| `CCCN(CC(=O)NC)C(=O)c1ccc(-c2nc(C)cs2)cc1` | -0.6081 | 3.226 |
| `CC(=O)N1CC(C)CN(C(=O)c2cccnc2C)c2ccccc21` (stereo unspecified) | -3.382 | -12.98 |
| `COc1ccc(OC)c(C(=O)Nc2cccnc2-n2cncn2)c1` | -62.7 | -19.97 |
| `CC[C@H]1COCCN1C(=O)c1ccc(OC)c(N2CCOCC2)c1` | -7.507 | -12.02 |
| `CCC(=O)c1ccc(OCC(=O)N(C)C(C)c2ccon2)cc1` (stereo unspecified) | -17.45 | 6.916 |
| `COc1ccc(CN2CCCC(N3CCCC3)C2)cc1Cn1cncn1` (stereo unspecified) | -20.06 | -0.05774 |
| `O=C(O)C(F)(F)F.O=C1N(CC2CC2)CCC12CCCN(c1ncc(F)cn1)C2` (stereo unspecified) | -33.66 | 4.637 |
| `COCC1CN(Cc2ccoc2)Cc2nnn(C)c21.O=C(O)C(F)(F)F` (stereo unspecified) | -46.26 | 0.05945 |
| `[H][C@@]12C[C@H](c3nc(C)no3)O[C@@]1([H])CCN(C(=O)C1CCOCC1)C2` | 2.567 | 8.781 |
| `O=C1CCCN1CCCC(=O)N1CCC2(CC1)[C@H](O)C[C@@H]2O` | 21.45 | -8.743 |
| `O=C(O)C(F)(F)F.O=C(O)C(F)(F)F.O=C(O)C(F)(F)F.[H][C@@]12CO[C@@H](CNc3ncccn3)[C@]1([H])CCN(Cc1cccc(C)n1)C2` | -9.697 | -9.297 |
| `CC(C)(C)n1cc(C(=O)N2CCN(Cc3ccccc3F)CC2)cn1` | 1.603 | -18.07 |
| `CCCn1ncc(C(=O)N(Cc2cccnc2)C[C@@H]2CCC(=O)N2)c1C` | -16.87 | -1.256 |
| `COc1ccc(CNC(=O)CNc2ccccc2OC)cc1` | 5.908 | -1.712 |
| `COCCN1C(=O)CCC12CCCN(C(=O)CC1CC1)CC2` (stereo unspecified) | -70.18 | -43.56 |
| `CCC(CNC(=O)Cc1c(C)noc1C)N1CCCC1` (stereo unspecified) | -32.36 | -16.02 |
| `CCc1nc(C)c(C(=O)N2C[C@@H](C(=O)O)[C@H](C3CC3)C2)s1` | -38.05 | 14.07 |
| `Cc1ccc2c(CC(=O)N(C)CCN(C)C)c(C)[nH]c2c1C.O=C(O)CC(O)(CC(=O)O)C(=O)O` | -27.47 | 14.61 |
| `CC(C)c1noc(CN2CCN(C(=O)c3ccccc3F)CC2)n1` | 2.61 | 5.062 |
| `O=C(O)C1(O)CCN(c2ccc3cccc(Cl)c3n2)CC1` | -48.06 | -3.475 |
| `CCS(=O)(=O)N1CCn2cc(CN(C)Cc3ccco3)nc2C1` | -28.78 | -4.756 |
| `O=C(O)C(F)(F)F.[H][C@@]12CN(C(=O)c3ccnnc3)C[C@]1([H])C(=O)N(Cc1csc(C)n1)C2` | - | -0.5917 |

The first 5 entries again:

CC(Cc1ccccc1F)C(=O)Nc1cccc(OCC(N)=O)c1 (stereo unspecified) gave T. brucei: 6.29%; Toxoplasma: -2.813%.
Cc1[nH]ncc1CCCNC(=O)N1CCN2CCCCC2C1 (stereo unspecified) gave T. brucei: -62.45%; Toxoplasma: 5.487%.
CC(NCc1cccc(S(=O)(=O)N(C)C)c1)c1ccccn1 (stereo unspecified) gave T. brucei: -23.19%; Toxoplasma: -16.88%.
O=C(NC1CC1)N(CCc1ccccc1)C1CCOC1 (stereo unspecified) gave T. brucei: -62.96%; Toxoplasma: -2.462%.
N#Cc1cc(F)ccc1CN1CCCCC1Cn1cccn1 (stereo unspecified) gave T. brucei: -8.165%; Toxoplasma: -2.776%.